Laboratory results: patent US20090186896A1, “PDE Inhibitors and Combinations Thereof for the Treatment of Urological Disorders” (Bayer HealthCare AG, priority 2005, published 2009)
For at least one compound, name, drawing or mass did not settle the structure.

System: BOO rats
Experiment: Conscious cystometry in rat bladder outlet obstruction (BOO) model, non voiding contractions
Assay type: in vivo
Settings: measure of irritative symptoms of BPH
Procedure: All animal experiments were performed due to the “German Law for the Protection of Laboratory animals” and were conducted due to the approved guidelines of the permission “Tierversuchsvorhaben No 401/A01 M010/M011 vom Sep. 7, 2004”. Experiments were performed with female Sprague Dawley Rats with a body weight between 200-250 g.
Bladder Outlet Obstruction: For the bladder outlet obstruction, rats were anesthetized with a mixture of 1.5-2% isoflurane in a carrier of 66% N2O 33% O2. The abdomen was shaved, opened by a lower midline incision, bladder and urethra were identified and the urethravesical junction was exposed. A 1.0 mm metal rod was placed along the proximal urethra and a 6-0 nylon ligature was tied tightly around the urethra and the rod. The rod was consecutively removed and the abdomen was closed by a silk ligature and cleaned up by 70% ethanol. […]
Conscious cystometry: For cystometry the animals were shortly anaesthetized by isoflurane as described above, placed in a Ballman's cage and fixed. […] The efficacy of treatment was quantified via calculation of the non voiding contractions per micturition interval before and after treatment. […]
Statistical analysis of results: Data are expressed as means±standard error of the means (SEM), and n indicating the number of experiments. The significance of differences between means was determined by paired and unpaired Student's t-test. […]

SMILES: CCCc1nc(C)c2c(=O)[nH]c(-c3cc(S(=O)(=O)N4CCN(CC)CC4)ccc3OCC)nn12 [Vardenafil, 2-(2-Ethoxy-5-(4-ethylpiperazin-1-yl-1-sulfonyl)phenyl)-5-methyl-7-propyl-3H-imidazo (5,1-f) (1,2,4)triazin-4-one]
- number of non-voiding contractions: significantly decreased
